Assay [1] deals with Cul9 (bait of the proximity-dependent biotin (BioID2) experiment) (UniProt Q8IWT3). Nature of the assay: proximity labelling.
Assay [2] deals with Cul9 (bait of the Cul9-complex analysed by MS/MS) (UniProt Q8IWT3). Nature of the assay: affinity purification with mass spectrometry.
The target of assay [3] is Cul9 (bait of the proximity-dependent biotin (BioID2) experiment) (UniProt Q8IWT3). As to the kind of experiment: proximity labelling. This is another data set of the same source.

The chains behind the UniProt entries cited, without tags or fusion partners.
UniProt Q8IWT3: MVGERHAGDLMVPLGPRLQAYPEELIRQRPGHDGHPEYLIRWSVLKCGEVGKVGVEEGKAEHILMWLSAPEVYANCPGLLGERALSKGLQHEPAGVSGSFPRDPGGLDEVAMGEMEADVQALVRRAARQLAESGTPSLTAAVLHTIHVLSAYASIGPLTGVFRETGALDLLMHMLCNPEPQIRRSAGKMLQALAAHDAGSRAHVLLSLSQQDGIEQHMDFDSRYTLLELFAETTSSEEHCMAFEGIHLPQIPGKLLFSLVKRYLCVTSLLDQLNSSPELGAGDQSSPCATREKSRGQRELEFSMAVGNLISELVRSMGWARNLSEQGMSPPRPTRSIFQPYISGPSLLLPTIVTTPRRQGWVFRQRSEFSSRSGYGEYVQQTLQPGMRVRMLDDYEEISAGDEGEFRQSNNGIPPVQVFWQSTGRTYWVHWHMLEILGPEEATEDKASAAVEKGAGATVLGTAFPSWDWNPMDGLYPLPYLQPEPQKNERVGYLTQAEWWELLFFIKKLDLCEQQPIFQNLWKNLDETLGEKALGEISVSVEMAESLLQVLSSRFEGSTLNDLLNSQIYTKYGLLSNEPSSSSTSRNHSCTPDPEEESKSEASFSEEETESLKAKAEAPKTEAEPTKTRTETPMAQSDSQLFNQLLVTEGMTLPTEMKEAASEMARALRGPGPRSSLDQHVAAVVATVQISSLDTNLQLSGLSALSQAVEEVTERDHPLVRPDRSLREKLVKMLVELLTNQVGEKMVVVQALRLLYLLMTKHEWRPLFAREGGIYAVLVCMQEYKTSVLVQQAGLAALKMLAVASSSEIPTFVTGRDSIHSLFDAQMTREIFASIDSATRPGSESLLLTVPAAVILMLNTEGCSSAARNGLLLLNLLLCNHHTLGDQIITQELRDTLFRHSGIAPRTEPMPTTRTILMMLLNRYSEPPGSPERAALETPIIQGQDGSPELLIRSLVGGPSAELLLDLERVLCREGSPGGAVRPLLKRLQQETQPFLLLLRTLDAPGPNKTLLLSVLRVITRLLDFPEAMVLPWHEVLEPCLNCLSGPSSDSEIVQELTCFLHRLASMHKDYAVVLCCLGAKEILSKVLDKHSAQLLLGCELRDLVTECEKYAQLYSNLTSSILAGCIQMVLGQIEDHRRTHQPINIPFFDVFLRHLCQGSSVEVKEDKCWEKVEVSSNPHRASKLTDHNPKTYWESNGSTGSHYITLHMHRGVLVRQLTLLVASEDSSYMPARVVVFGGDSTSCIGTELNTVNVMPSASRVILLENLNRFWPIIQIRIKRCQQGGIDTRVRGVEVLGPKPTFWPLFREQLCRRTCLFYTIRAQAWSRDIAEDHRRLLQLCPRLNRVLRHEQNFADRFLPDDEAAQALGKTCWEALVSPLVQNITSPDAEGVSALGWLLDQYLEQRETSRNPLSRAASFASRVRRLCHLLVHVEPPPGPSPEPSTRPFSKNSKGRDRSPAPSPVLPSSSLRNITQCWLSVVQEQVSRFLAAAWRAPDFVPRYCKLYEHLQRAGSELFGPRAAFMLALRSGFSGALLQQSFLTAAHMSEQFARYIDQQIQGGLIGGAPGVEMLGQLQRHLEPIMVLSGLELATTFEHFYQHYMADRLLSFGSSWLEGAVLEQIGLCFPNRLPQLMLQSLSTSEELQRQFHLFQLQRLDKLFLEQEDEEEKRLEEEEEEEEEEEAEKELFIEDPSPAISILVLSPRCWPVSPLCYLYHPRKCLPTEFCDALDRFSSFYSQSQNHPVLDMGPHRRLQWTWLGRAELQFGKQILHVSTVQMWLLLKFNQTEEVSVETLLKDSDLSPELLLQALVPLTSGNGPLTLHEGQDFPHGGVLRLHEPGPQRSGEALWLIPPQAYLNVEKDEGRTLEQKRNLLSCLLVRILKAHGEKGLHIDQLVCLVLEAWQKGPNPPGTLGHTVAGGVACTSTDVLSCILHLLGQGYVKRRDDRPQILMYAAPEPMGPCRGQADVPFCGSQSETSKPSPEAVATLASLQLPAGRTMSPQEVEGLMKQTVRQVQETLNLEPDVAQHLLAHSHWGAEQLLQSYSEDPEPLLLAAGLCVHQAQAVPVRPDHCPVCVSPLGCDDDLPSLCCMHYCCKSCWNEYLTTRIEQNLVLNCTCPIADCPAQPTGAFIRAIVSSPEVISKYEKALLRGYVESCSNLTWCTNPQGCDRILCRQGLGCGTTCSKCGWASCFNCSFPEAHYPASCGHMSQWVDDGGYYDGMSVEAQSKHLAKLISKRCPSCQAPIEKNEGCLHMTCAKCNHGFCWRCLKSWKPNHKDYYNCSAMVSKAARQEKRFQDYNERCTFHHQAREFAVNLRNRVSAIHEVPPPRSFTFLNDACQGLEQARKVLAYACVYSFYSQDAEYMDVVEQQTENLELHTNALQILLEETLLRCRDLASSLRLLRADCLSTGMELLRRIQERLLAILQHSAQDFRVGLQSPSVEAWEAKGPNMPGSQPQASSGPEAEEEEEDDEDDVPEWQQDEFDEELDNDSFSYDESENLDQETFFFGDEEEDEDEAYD
UniProt Q96CV9: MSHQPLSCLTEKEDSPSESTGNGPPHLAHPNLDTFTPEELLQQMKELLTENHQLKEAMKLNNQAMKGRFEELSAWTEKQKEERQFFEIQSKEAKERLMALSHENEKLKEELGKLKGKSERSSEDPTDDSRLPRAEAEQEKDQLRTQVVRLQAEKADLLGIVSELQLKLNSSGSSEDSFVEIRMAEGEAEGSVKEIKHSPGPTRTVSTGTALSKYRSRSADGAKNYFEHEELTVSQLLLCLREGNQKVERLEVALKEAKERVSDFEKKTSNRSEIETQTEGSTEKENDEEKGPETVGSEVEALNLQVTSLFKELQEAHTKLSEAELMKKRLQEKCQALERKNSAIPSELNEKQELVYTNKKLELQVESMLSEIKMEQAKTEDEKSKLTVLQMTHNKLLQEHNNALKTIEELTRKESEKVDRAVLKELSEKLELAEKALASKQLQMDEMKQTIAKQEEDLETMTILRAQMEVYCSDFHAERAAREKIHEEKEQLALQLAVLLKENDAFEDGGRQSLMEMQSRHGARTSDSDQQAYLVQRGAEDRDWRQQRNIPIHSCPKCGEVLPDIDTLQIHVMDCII
UniProt O43791: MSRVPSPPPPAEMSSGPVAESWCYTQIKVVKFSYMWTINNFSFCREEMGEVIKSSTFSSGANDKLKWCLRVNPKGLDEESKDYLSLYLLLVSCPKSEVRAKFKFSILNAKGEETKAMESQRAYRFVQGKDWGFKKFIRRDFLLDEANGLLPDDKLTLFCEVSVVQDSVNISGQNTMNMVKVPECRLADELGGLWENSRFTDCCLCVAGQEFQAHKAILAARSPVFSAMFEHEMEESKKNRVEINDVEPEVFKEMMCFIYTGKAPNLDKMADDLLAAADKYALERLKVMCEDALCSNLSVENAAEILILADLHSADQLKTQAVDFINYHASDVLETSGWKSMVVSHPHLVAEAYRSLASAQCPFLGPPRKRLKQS
UniProt P07947: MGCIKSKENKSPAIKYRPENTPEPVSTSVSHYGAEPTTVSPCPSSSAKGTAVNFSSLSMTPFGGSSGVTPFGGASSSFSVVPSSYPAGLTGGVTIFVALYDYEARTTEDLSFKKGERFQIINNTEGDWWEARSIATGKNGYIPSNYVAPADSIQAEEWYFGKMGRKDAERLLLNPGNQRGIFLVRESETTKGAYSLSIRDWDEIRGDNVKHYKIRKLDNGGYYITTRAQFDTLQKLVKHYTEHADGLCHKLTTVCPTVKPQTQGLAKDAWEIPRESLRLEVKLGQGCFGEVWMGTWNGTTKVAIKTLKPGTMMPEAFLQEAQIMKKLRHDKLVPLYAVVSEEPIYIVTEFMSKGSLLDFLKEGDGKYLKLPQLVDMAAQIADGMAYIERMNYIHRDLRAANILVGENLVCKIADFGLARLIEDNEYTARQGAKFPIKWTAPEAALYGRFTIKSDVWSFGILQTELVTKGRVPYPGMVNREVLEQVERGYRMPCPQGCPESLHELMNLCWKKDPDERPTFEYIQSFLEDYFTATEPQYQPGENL
UniProt Q12923: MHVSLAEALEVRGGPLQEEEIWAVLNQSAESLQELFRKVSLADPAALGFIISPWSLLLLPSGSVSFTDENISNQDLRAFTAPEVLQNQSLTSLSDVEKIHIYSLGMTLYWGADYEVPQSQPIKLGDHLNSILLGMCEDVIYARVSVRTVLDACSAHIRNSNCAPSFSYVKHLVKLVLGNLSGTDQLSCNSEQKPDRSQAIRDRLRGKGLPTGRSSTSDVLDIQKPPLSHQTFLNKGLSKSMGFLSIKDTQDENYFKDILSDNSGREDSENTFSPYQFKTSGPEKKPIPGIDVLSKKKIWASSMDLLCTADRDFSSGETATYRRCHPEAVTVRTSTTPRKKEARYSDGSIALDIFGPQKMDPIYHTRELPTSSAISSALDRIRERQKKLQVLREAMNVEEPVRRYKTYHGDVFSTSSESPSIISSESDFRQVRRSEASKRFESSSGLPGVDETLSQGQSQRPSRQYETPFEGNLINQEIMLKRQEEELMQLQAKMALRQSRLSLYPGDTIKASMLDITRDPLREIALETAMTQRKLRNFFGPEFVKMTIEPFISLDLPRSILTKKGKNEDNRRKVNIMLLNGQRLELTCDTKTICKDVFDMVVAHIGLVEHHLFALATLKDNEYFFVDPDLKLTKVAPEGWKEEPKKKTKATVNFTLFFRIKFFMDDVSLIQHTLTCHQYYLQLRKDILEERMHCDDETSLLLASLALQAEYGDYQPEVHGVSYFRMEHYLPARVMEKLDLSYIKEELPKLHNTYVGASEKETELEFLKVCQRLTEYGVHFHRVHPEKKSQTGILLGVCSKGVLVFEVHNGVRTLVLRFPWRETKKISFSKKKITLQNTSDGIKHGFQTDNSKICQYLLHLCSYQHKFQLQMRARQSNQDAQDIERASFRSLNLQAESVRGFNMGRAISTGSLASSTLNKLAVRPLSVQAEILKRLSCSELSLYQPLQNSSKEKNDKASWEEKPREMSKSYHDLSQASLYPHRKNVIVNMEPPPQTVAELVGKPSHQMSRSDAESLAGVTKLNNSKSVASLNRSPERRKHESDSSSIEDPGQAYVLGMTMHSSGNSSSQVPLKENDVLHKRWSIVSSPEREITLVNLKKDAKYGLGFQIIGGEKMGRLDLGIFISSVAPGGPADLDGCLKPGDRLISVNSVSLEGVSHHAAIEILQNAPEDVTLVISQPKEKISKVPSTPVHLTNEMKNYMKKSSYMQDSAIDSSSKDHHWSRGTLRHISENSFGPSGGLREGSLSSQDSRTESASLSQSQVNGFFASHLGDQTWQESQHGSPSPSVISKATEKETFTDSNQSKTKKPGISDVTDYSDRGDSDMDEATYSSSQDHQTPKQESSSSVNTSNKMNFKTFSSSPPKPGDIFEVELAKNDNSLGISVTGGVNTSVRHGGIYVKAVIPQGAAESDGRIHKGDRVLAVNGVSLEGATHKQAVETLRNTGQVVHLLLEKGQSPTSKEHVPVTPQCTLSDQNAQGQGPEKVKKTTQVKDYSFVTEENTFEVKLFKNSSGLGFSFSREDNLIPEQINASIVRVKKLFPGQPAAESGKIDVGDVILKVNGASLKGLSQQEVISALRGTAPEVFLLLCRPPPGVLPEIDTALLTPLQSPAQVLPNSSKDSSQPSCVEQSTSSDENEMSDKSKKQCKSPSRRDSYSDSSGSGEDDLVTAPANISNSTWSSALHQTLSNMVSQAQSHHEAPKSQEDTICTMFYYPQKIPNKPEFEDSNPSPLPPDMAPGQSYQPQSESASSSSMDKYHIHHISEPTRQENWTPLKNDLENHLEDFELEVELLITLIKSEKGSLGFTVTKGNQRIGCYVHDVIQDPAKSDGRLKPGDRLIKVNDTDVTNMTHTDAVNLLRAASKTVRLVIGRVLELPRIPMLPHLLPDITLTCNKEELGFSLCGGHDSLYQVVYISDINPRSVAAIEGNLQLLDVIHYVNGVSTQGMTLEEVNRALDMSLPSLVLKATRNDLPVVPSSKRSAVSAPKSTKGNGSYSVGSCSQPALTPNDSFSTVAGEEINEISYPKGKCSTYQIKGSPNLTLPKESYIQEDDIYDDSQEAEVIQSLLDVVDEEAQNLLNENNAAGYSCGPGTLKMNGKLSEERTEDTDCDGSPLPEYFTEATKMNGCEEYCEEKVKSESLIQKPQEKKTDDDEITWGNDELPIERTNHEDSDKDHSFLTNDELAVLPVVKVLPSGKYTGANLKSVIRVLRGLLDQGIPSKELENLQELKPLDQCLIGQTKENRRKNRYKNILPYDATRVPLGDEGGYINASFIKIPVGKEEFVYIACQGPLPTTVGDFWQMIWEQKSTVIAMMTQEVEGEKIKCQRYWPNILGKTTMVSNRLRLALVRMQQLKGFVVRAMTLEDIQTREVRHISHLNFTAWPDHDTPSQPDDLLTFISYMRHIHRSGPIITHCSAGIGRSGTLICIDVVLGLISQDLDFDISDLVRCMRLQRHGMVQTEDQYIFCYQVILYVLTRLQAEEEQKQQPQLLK

Read-outs that look alike come from different tables or passages of the source. Results are given in words; binding and its absence hold for the method and conditions named. Binding seen in cells or lysates may run through a third protein. A yes stands for co-enrichment or nearness to the bait. Other partners may have been found. For part of these data: A no says only that the protein was not detected with the bait.

Six molecules from paper doi:10.1101/2023.10.18.562906 can be followed below.

Take OPTN (from UniProt Q96CV9 1-577): in assay [1], the binding entry was “no binding”. As for SPOP (from UniProt O43791 1-374), the binding result in assay [2] is “binds”. As to “Yes1 (found in the BioID2 experiment) (from UniProt P07947 1-543) (enzyme)”, the binding result in assay [1] is “binds”. Consider “p62 (found in the BioID2 experiment) (from UniProt Q13501 1-440)”, for which the binding result in assay [1] is reported as “binds”.

Consider “tyrosine phosphatase PTPN13 (from UniProt Q12923 1-2485) (enzyme)”, for which the binding result in assay [2] is on record as “binds”.

B1: NDP52 (protein, UniProt Q13137 1-446)
chain: MEETIKDPPTSAVLLDHCHFSQVIFNSVEKFYIPGGDVTCHYTFTQHFIPRRKDWIGIFRVGWKTTREYYTFMWVTLPIDLNNKSAKQQEVQFKAYYLPKDDEYYQFCYVDEDGVVRGASIPFQFRPENEEDILVVTTQGEVEEIEQHNKELCKENQELKDSCISLQKQNSDMQAELQKKQEELETLQSINKKLELKVKEQKDYWETELLQLKEQNQKMSSENEKMGIRVDQLQAQLSTQEKEMEKLVQGDQDKTEQLEQLKKENDHLFLSLTEQRKDQKKLEQTVEQMKQNETTAMKKQQELMDENFDLSKRLSENEIICNALQRQKERLEGENDLLKRENSRLLSYMGLDFNSLPYQVPTSDEGGARQNPGLAYGNPYSGIQESSSPSPLSIKKCPICKADDICDHTLEQQQMQPLCFNCPICDKIFPATEKQIFEDHVFCHSL
For B1, the binding entry in assay [3] is recorded as “no binding”.
